{"source": "PubChem BioAssay AID743454 – Peter MacCallum Cancer Centre | 2014", "purpose": "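Knock-downs lowering viability or raising caspase 3/7 activity in vorinostat-treated resistant cells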 (primary screen)", "cells": "human HCT116-VR colon cancer cells, selected for vorinostat resistance", "reagents": "siRNA pool against human genes, 40 nM siRNA pool", "duration": "vorinostat for 24 h, read-out about 72 h after transfection", "treatment": "vorinostat at 2.5 µM final", "measurement": "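Two measures, CellTiter-Fluor viability and luminescent caspase 3/7 activity, each as fold change against same-plate mock wells, mean of duplicates, then screen-wide robust z-score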", "reading the numbers": "viability robust z-score: higher = more viable cells than screen typical; caspase robust z-score: higher = more caspase 3/7 activity than screen typical", "hit rule": "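a knock-down is a hit when classed RV1 or RV2 for lowered viability, or CA1 or CA2 for caspase activation; those lethal without drug were dropped; hits were retested singly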", "note": "The whole screen tested about 18,000 reagents; this is an unselected part. In the full data, 450 (2.5%) got an active call. 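Single biological run; no consistent viability z cut-off exists, so the class columns, not z-scores, define the calls.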 Unmarked entries are inactive."}
The first 2 entries, ahead of the listing:
{"gene knocked down": "POTEE", "PubChem SID": "SID152156664", "viability hit class": "no change", "caspase hit class": "no change", "viability robust z-score": -1, "caspase robust z-score": 2.36}
{"gene knocked down": "SHE", "PubChem SID": "SID135624715", "viability hit class": "no change", "caspase hit class": "no change", "viability robust z-score": -0.9, "caspase robust z-score": 1.42}

The list itself, from the first entry:
{"gene knocked down": "POTEE", "PubChem SID": "SID152156664", "viability hit class": "no change", "caspase hit class": "no change", "viability robust z-score": -1, "caspase robust z-score": 2.36}
{"gene knocked down": "SHE", "PubChem SID": "SID135624715", "viability hit class": "no change", "caspase hit class": "no change", "viability robust z-score": -0.9, "caspase robust z-score": 1.42}
{"gene knocked down": "OTOP2", "PubChem SID": "SID134322287", "viability hit class": "no change", "caspase hit class": "no change", "viability robust z-score": 1.53, "caspase robust z-score": -0.4}
{"gene knocked down": "FASTKD3", "PubChem SID": "SID134318463", "viability hit class": "no change", "caspase hit class": "no change", "viability robust z-score": 0.21, "caspase robust z-score": -1.36}
{"gene knocked down": "ZNF195", "PubChem SID": "SID135623763", "viability hit class": "no change", "caspase hit class": "no change", "viability robust z-score": 0.99, "caspase robust z-score": 0.14}
{"gene knocked down": "SIGLEC10", "PubChem SID": "SID135623468", "viability hit class": "no change", "caspase hit class": "no change", "viability robust z-score": 0.48, "caspase robust z-score": 2.11}
{"gene knocked down": "ACSL1", "PubChem SID": "SID134315978", "viability hit class": "no change", "caspase hit class": "no change", "viability robust z-score": 1.15, "caspase robust z-score": -0.26}
{"gene knocked down": "C20orf96", "PubChem SID": "SID134319794", "viability hit class": "no change", "caspase hit class": "no change", "viability robust z-score": -1.71, "caspase robust z-score": -0.1}
{"gene knocked down": "RB1", "PubChem SID": "SID135620657", "viability hit class": "no change", "caspase hit class": "no change", "viability robust z-score": -0.19, "caspase robust z-score": 0.05}
{"gene knocked down": "ASCL4", "PubChem SID": "SID135624615", "viability hit class": "no change", "caspase hit class": "no change", "viability robust z-score": -0.94, "caspase robust z-score": 0.26}
{"gene knocked down": "NOX5", "PubChem SID": "SID152152643", "viability hit class": "no change", "caspase hit class": "no change", "viability robust z-score": 0.52, "caspase robust z-score": -0.8}
{"gene knocked down": "ATXN1", "PubChem SID": "SID152153552", "viability hit class": "no change", "caspase hit class": "no change", "viability robust z-score": 0.27, "caspase robust z-score": 0.3}
